Source: publication PMC5386555

How the values were obtained:
[1] = target: receptor-interacting protein 1 (RIP1) (rat (endogenous in Sprague-Dawley rat brain tissue and primary neurons)); experiment: co-IP; rat brain tissue lysed in ice-cold RIPA buffer; IP with anti-RIP1 antibody (rabbit IgG as negative control) overnight at 4 °C, Protein A+G Sepharose beads; immunoblot for RIP3, MLKL, caspase-8; Sham and 24 h after ICH; animals also treated with Nec-1, z-VAD, RIP1 siRNA, Ad-GFP or Ad-RIP1
[2] = target: rat RIP1 overexpressed from recombinant adenovirus (Ad-RIP1) (rat); experiment: as above
[3] = target: receptor-interacting protein 1 (RIP1) (rat (endogenous in Sprague-Dawley rat brain tissue and primary neurons)); experiment: co-IP; cultured primary rat neurons; IP with anti-RIP1 antibody, immunoblot for RIP3, MLKL, caspase-8; control, OxyHb, conditioned medium from OxyHb-stimulated microglia, with or without TNF-α inhibitor, Ad-RIP1 or Ad-RIP1-S166A
[4] = target: rat RIP1 overexpressed from recombinant adenovirus (Ad-RIP1) (rat); experiment: as above

Measured: binding

B1: RIP3 (protein, UniProt Q9Z2P5 1-478)
chain: MSSVKLWLNGASSISLVGSEELENLGFVGKGGFGAVFRARHTAWNLDVAVKIVNSKKISREVKAMVNLRHENVLLLLGVTENLEWDYVYGPALVTGFMENGSLSGLLQPSCPRPWPLLCRLLEEVVLGMCYLHSLNPSLLHRDLKPSNVLLDPELHAKLADFGLSTFQGGSQSGSGSGSRDSGGTLAYLAPELLDNDGKASKASDVYSFGVLVWTVLAGREAEVVDKTSLIRGAVCNRQRRPPLTELPPDSPETPGLEGLKELMTHCWSSEPKDRPSFQDCESKTNNVYILVQDKVDAAVSKVKHYLSQYRSSDTKLSARESSQKGTEVDCPRETIVYEMLDRLHLEEPSGSVPERLTSLTERRGKEASFGHATPAGTSSDTLAGTPQIPHTLPSRGTTPRPAFTETPGPDPQRNQGDGRNSNPWYTWNAPNPMTGLQSIVLNNCSEVQIGQHNCMSVQPRTAFPKKEPAQFGRGRGW
binds: all assays above

B2: MLKL (mixed lineage kinase domain-like protein) (protein, UniProt D3ZKP6 1-462)
chain: MDKLGQIIKLGQLIYDQCEKMKYCKRQCRRLRNRVHGLLQPLQRLQAQEKKSLPSDITAALGRFEDVLKEARQQIEKFSQKSNIWKFATVGSDKILFHEVNEKLRDIWEELLLLLQVDQWKSDSEVSQPASWQQEDQQDAEEDGNENMKVILVKLQISMEEIKEALKQCSLKPMQEVPQDFQVKEIPKEDLGYPWTKLKTNKLSTIYRGEYYKSPVTIKVFNNPKAESVGIVRLTFNEEIKTMKKFDSPNILRIFGICIDQTVKPPEFSIVMEYCELGTLRELLDRDKDLTMSVRSLLVLRAARGLYRLHHSGTLHGNISSSSFLVAGGYQVKLAGFELSKTQTSISRATKSTKAERFSSTAYVSPERLQDPFCKYDTKAEIYSFGIVLWEIATGKIPFEGCDSEKIYELVAENKKQEPVGQDCPELLQEIINECRAHEPSNRPSADGRILSLPQMENTRQS
binds: all assays above

These are yes or no findings as the source states them, for the method shown. In cells and extracts the contact can be indirect. Binding can be weak; no strength is given.
